Residue numbers refer to the chain shown, from its start. No constants are given. Whether binding was seen depends on the method and setting. Some entries that bind do so weakly or less than the wild type.
B1: hMAB-A (2C.2) (antibody, V domains shown)
VH: EVQLVESGGGLVKPGGSLRLSCAASGFTFSSYWMHWVRQAPGKGLEWVGEIIPIFGHTNYNEKFKSRFTISLDNSKNTLYLQMGSLRAEDTAVYYCARGGYYYYPRFGWLDYWGQGTTVTVSS
VL: DIVMTQSPDSLAVSLGERATISCKASQSVDYSGDSYMNWYQQKPGQPPKLLIYAASDLESGIPARFSGSGSGTDFTLTISSLEPEDFATYYCQQSHEDPFTFGQGTKLEIK
B2: hMAB-A (2B.2) (antibody, V domains shown)
VH: B1 VH with P105I, R106G, F107K, W109V
VL: B1 VL
B3: hMAB-A (2D.2) (antibody, V domains shown)
VH: B1 VH with P105T, R106G, F107K, W109V
VL: B1 VL
B4: hMAB-A (3.3) (antibody, V domains shown)
VH: B1 VH with K63R, K65Q, S66G, P105G, R106S, F107R, G108D, W109Y, L110F
VL: B1 VL with K24R
B5: hMAB-A (2.3) (antibody, V domains shown)
VH: B1 VH with P105G, R106S, F107R, G108D, W109Y, L110F
VL: B1 VL with K24R
B6: hMAB-A (4.4) (antibody, V domains shown)
VH: B1 VH with M34I, K63R, K65Q, S66G, P105G, R106S, F107R, G108D, W109Y, L110F
VL: B1 VL with K24R, M37L, H96Y, E97S, D98T
B7: hMAB-A (1.1) (antibody, V domains shown)
VH: B1 VH with F55N, P105G, R106S, F107R, G108D, W109Y, L110F
VL: B1 VL with S32D
B8: hMAB-A (2.2) (antibody, V domains shown)
VH: B1 VH with P105G, R106S, F107R, G108D, W109Y, L110F
VL: B1 VL
B9: hMAB-A (2A.2) (antibody, V domains shown)
VH: B1 VH with P105F, R106N, F107S, W109T
VL: B1 VL
B10: hMAB-A (2E.2) (antibody, V domains shown)
VH: B1 VH with P105D, R106S, F107N, G108A, W109V
VL: B1 VL
B11: hMAB-A (2J.2) (antibody, V domains shown)
VH: B1 VH with P105Y, R106N, F107S, W109T
VL: B1 VL
B12: hMAB-A (2H.2) (antibody, V domains shown)
VH: B1 VH with P105G, R106G, F107S, W109V
VL: B1 VL
B13: hMAB-A (2G.2) (antibody, V domains shown)
VH: B1 VH with P105F, R106N, F107K, G108A, W109V
VL: B1 VL
B14: hMAB-A (2F.2) (antibody, V domains shown)
VH: B1 VH with P105F, R106H, F107S, W109T
VL: B1 VL

The chains behind the UniProt entries cited, without tags or fusion partners. Where a name states a change or a piece, a line headed by the entry shows the natural chain unless it says otherwise.
UniProt Q13443: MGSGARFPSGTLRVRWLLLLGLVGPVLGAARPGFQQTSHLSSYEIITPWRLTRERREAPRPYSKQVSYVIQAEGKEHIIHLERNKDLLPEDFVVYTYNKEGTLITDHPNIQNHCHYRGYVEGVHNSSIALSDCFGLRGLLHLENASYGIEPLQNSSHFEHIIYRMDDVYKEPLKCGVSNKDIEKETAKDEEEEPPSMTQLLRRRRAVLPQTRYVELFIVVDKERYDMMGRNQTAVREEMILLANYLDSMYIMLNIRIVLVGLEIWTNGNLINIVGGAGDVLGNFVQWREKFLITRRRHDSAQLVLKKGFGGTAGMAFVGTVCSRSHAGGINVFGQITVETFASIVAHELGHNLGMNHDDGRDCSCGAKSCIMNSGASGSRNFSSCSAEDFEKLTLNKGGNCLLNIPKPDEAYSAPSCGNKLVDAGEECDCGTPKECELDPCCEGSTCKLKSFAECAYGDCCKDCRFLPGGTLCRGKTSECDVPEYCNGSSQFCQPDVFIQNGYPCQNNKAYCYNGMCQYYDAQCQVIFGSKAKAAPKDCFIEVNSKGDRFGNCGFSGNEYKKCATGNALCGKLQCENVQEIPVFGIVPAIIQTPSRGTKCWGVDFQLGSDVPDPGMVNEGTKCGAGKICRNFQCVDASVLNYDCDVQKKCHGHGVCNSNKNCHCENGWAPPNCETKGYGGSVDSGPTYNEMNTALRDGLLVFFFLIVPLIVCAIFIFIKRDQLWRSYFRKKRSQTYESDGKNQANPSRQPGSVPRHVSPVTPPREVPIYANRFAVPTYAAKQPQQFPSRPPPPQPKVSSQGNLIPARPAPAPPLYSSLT

Each binder was assayed against His-tagged soluble human ADAM9 (human) (UniProt Q13443) (assay: ELISA; huADAM9-His (1 µg/mL) captured by anti-His antibody, serial dilutions of antibody).

binding, binds:
B1
B2
B3

What follows are binders tested against His-tagged soluble human ADAM9 (human) (UniProt Q13443) (assay: BIACORE).

binding, binds:
B1
B2
B3
B4
B5
B6
B7
B8

The binders below were run against His-tagged soluble human ADAM9 (human) (UniProt Q13443) (assay: ELISA (RLU): huADAM9-His (1 µg/mL) captured by plate-coated anti-His antibody, antibody diluted 0.03-1 µg/ml).

binding, binds:
B9
B1
B2
B3
B10
B11
B12
B13
B8
B14
